Measurements reported in PubChem BioAssay AID1508588 (Peter MacCallum Cancer Centre, 2020)

Purpose: 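Knock-downs boosting vemurafenib effects on melanoma cell growth or lactate release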 (primary screen)
System: human WM266.4 melanoma cells (BRAF V600 mutant)
Reagent: siRNA pool against human genes, 40 nM
Time to read-out: 96 h from transfection to read-out
Treatment: vemurafenib 300 nM (about IC25), added 48 h after transfection, for 48 h; comparison arm got DMSO vehicle only
Measurement: 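Cell gain (DAPI nuclei at end minus before drug, mean of two replicates) and medium lactate by absorbance per cell, both as ratio to non-targeting siRNA, also grouped into fold-change classes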
Scale: cell gain with vemurafenib: higher = more cell gain than with non-targeting siRNA; lactate per cell with vemurafenib: higher = more lactate made per cell
Rule for the call: 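a knock-down counts as enhancing when its fold-change classes with vehicle and with vemurafenib, taken together, show a stronger drug effect on cell gain or lactate per cell; exact class pairs not stated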
Calls: active = enhances vemurafenib effect; inactive = no enhancement seen
The whole screen tested about 18,000 reagents; this is an unselected part. Over the whole deposit, 790 (4.4%) got an active call. 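Calls rest on a combination of fold-change classes in drug and vehicle arms, not all shown here.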 Unmarked entries are inactive.

COXFA4L2 (GeneID 56901)
- cell gain with vemurafenib: 0.66
- lactate per cell with vemurafenib: 1.48

SCARA5 (GeneID 286133)
- cell gain with vemurafenib: 0.69
- lactate per cell with vemurafenib: 1.35

GAB4 (GeneID 128954)
- cell gain with vemurafenib: 0.94
- lactate per cell with vemurafenib: 0.78

BCL9L (GeneID 283149)
- cell gain with vemurafenib: 0.26
- lactate per cell with vemurafenib: 1.02

MYBPC1 (GeneID 4604)
- cell gain with vemurafenib: 0.4
- lactate per cell with vemurafenib: 0.82

CYS1 (GeneID 192668)
- cell gain with vemurafenib: 0.79
- lactate per cell with vemurafenib: 0.97

SERPINH1 (GeneID 871)
- cell gain with vemurafenib: 0.88
- lactate per cell with vemurafenib: 0.81

Ordered by “cell gain with vemurafenib” (high to low): 2 of the entries above
SCARA5 (GeneID 286133)
- cell gain with vemurafenib: 0.69
- lactate per cell with vemurafenib: 1.35

COXFA4L2 (GeneID 56901)
- cell gain with vemurafenib: 0.66
- lactate per cell with vemurafenib: 1.48

Additional records:
U2AF2 (GeneID 11338)
- cell gain with vemurafenib: 0.22
- lactate per cell with vemurafenib: 2.28

LYPD2 (GeneID 137797)
- cell gain with vemurafenib: 0.26
- lactate per cell with vemurafenib: 1.17

CSTF1 (GeneID 1477)
- cell gain with vemurafenib: 1.12
- lactate per cell with vemurafenib: 0.54

RAB11FIP2 (GeneID 22841)
- cell gain with vemurafenib: 0.54
- lactate per cell with vemurafenib: 1.48

ERICH1 (GeneID 157697)
- cell gain with vemurafenib: 0.64
- lactate per cell with vemurafenib: 1.17

ARHGAP18 (GeneID 93663)
- cell gain with vemurafenib: 0.61
- lactate per cell with vemurafenib: 1.17

MBD3 (GeneID 53615)
- cell gain with vemurafenib: 0.7
- lactate per cell with vemurafenib: 0.55

KCNA2 (GeneID 3737)
- cell gain with vemurafenib: 0.82
- lactate per cell with vemurafenib: 0.56

PTK7 (GeneID 5754)
- cell gain with vemurafenib: 0.81
- lactate per cell with vemurafenib: 1.25
